This note sets out measurements from article PMC10199079, “ERK and USP5 govern PD-1 homeostasis via deubiquitination to modulate tumor immunotherapy” (Nature Communications, 2023).

Protein sequences, listed by entry. Tags and fused reporters are not part of them. Residues count along the entry.
UniProt Q15116, residues 25-288: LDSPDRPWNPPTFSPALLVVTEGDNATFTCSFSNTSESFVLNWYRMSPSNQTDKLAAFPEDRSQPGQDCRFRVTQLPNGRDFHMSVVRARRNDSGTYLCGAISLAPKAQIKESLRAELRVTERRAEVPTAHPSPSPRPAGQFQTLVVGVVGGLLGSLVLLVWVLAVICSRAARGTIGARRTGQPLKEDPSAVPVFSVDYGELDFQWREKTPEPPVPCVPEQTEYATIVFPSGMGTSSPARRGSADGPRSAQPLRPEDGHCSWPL
UniProt Q8TD19: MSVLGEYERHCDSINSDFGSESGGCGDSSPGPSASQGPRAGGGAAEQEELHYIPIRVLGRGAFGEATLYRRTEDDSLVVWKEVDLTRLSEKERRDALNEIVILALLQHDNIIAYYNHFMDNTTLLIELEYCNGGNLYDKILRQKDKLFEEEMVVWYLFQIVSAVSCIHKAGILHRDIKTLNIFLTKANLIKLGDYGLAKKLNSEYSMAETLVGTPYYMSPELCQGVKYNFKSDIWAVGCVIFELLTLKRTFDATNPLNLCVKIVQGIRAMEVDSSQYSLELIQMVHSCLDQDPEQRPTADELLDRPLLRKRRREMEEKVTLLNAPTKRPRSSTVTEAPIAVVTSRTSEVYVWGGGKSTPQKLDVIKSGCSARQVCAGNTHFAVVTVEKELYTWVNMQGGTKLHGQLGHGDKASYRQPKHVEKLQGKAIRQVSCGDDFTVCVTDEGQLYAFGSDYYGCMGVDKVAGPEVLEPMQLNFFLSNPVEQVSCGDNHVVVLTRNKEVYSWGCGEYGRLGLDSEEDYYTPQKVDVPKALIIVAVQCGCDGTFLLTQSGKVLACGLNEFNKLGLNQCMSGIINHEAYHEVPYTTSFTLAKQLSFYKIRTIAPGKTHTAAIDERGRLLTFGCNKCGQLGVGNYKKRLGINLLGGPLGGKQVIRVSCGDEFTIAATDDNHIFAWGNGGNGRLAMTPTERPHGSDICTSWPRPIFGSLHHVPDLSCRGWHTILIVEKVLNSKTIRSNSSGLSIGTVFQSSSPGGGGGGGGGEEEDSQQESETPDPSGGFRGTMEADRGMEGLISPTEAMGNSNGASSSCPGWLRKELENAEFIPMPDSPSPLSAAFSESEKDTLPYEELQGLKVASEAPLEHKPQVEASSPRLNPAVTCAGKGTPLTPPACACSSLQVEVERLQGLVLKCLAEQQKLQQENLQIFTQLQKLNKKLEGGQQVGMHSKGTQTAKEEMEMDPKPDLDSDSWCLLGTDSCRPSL
UniProt P45974: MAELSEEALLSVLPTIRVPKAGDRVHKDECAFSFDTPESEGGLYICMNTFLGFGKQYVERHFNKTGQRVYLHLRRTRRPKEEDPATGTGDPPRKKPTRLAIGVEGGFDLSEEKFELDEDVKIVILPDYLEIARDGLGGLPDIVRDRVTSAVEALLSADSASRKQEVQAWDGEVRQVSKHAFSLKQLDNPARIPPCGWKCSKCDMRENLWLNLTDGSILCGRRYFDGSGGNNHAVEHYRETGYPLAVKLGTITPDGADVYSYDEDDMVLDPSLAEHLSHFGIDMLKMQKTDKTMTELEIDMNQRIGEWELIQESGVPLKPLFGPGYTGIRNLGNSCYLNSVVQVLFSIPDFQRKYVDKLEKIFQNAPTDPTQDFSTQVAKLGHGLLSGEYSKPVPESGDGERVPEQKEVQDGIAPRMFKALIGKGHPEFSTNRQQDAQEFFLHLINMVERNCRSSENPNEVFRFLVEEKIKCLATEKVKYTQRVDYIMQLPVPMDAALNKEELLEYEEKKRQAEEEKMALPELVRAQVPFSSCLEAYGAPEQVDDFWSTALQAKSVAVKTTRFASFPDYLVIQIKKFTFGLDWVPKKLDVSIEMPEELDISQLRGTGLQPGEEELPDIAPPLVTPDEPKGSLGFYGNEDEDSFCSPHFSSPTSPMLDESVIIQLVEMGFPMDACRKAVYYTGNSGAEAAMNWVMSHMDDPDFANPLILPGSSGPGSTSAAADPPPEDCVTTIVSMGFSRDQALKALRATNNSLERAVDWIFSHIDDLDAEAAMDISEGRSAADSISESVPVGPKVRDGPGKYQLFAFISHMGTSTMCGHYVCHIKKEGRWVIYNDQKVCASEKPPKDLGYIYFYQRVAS

Where two headings read alike, the source gives them in different places. No constants are given. Whether binding was seen depends on the method and setting. In cells and extracts the contact can be indirect. A yes stands for co-enrichment or nearness to the bait. Other partners may have been found.

Assay [1] addresses PD-1-cHA (human) (UniProt Q15116). Kind of assay: affinity purification with mass spectrometry; anti-HA-agarose IP from lysates of HEK293T cells transfected with pcDNA3.1-PD-1-cHA or empty vector; EBC buffer (50 mM Tris pH 7.5, 0.5% NP40, 120 mM NaCl), 4 h at 4 °C, washed five times with NETN buffer.
For assay [2] the target is unchanged. The assay is described as above. This is another data set of the same source.

With “NEK9 (from UniProt Q8TD19 1-979) (enzyme)”, the binding result in the assay with PD-1-cHA (human) [1] is listed as “binds”.

For “ubiquitin-specific protease 5 (USP5), endogenous (from UniProt P45974 1-858) (enzyme)”, the binding entry with PD-1-cHA (human) [1] is reported as “binds”.

B1: USP15, endogenous (enzyme, UniProt Q9Y4E8 1-981)
chain: MAEGGAADLDTQRSDIATLLKTSLRKGDTWYLVDSRWFKQWKKYVGFDSWDKYQMGDQNVYPGPIDNSGLLKDGDAQSLKEHLIDELDYILLPTEGWNKLVSWYTLMEGQEPIARKVVEQGMFVKHCKVEVYLTELKLCENGNMNNVVTRRFSKADTIDTIEKEIRKIFSIPDEKETRLWNKYMSNTFEPLNKPDSTIQDAGLYQGQVLVIEQKNEDGTWPRGPSTPKSPGASNFSTLPKISPSSLSNNYNNMNNRNVKNSNYCLPSYTAYKNYDYSEPGRNNEQPGLCGLSNLGNTCFMNSAIQCLSNTPPLTEYFLNDKYQEELNFDNPLGMRGEIAKSYAELIKQMWSGKFSYVTPRAFKTQVGRFAPQFSGYQQQDCQELLAFLLDGLHEDLNRIRKKPYIQLKDADGRPDKVVAEEAWENHLKRNDSIIVDIFHGLFKSTLVCPECAKISVTFDPFCYLTLPLPMKKERTLEVYLVRMDPLTKPMQYKVVVPKIGNILDLCTALSALSGIPADKMIVTDIYNHRFHRIFAMDENLSSIMERDDIYVFEININRTEDTEHVIIPVCLREKFRHSSYTHHTGSSLFGQPFLMAVPRNNTEDKLYNLLLLRMCRYVKISTETEETEGSLHCCKDQNINGNGPNGIHEEGSPSEMETDEPDDESSQDQELPSENENSQSEDSVGGDNDSENGLCTEDTCKGQLTGHKKRLFTFQFNNLGNTDINYIKDDTRHIRFDDRQLRLDERSFLALDWDPDLKKRYFDENAAEDFEKHESVEYKPPKKPFVKLKDCIELFTTKEKLGAEDPWYCPNCKEHQQATKKLDLWSLPPVLVVHLKRFSYSRYMRDKLDTLVDFPINDLDMSEFLINPNAGPCRYNLIAVSNHYGGMGGGHYTAFAKNKDDGKWYYFDDSSVSTASEDQIVSKAAYVLFYQRQDTFSGTGFFPLDRETKGASAATGIPLESDEDSNDNDNDIENENCMHTN
On to B1, for which the binding entry in the assay with PD-1-cHA (human) [2] is recorded as “binds”.

B2: HK2 (enzyme, UniProt P52789 1-917)
chain: MIASHLLAYFFTELNHDQVQKVDQYLYHMRLSDETLLEISKRFRKEMEKGLGATTHPTAAVKMLPTFVRSTPDGTEHGEFLALDLGGTNFRVLWVKVTDNGLQKVEMENQIYAIPEDIMRGSGTQLFDHIAECLANFMDKLQIKDKKLPLGFTFSFPCHQTKLDESFLVSWTKGFKSSGVEGRDVVALIRKAIQRRGDFDIDIVAVVNDTVGTMMTCGYDDHNCEIGLIVGTGSNACYMEEMRHIDMVEGDEGRMCINMEWGAFGDDGSLNDIRTEFDQEIDMGSLNPGKQLFEKMISGMYMGELVRLILVKMAKEELLFGGKLSPELLNTGRFETKDISDIEGEKDGIRKAREVLMRLGLDPTQEDCVATHRICQIVSTRSASLCAATLAAVLQRIKENKGEERLRSTIGVDGSVYKKHPHFAKRLHKTVRRLVPGCDVRFLRSEDGSGKGAAMVTAVAYRLADQHRARQKTLEHLQLSHDQLLEVKRRMKVEMERGLSKETHASAPVKMLPTYVCATPDGTEKGDFLALDLGGTNFRVLLVRVRNGKWGGVEMHNKIYAIPQEVMHGTGDELFDHIVQCIADFLEYMGMKGVSLPLGFTFSFPCQQNSLDESILLKWTKGFKASGCEGEDVVTLLKEAIHRREEFDLDVVAVVNDTVGTMMTCGFEDPHCEVGLIVGTGSNACYMEEMRNVELVEGEEGRMCVNMEWGAFGDNGCLDDFRTEFDVAVDELSLNPGKQRFEKMISGMYLGEIVRNILIDFTKRGLLFRGRISERLKTRGIFETKFLSQIESDCLALLQVRAILQHLGLESTCDDSIIVKEVCTVVARRAAQLCGAGMAAVVDRIRENRGLDALKVTVGVDGTLYKLHPHFAKVMHETVKDLAPKCDVSFLQSEDGSGKGAALITAVACRIREAGQR
For the molecule B2, the binding entry with PD-1-cHA (human) [2] is “binds”.

B3: KLHL22 (protein, UniProt Q53GT1 1-634)
chain: MAEEQEFTQLCKLPAQPSHPHCVNNTYRSAQHSQALLRGLLALRDSGILFDVVLVVEGRHIEAHRILLAASCDYFRGMFAGGLKEMEQEEVLIHGVSYNAMCQILHFIYTSELELSLSNVQETLVAACQLQIPEIIHFCCDFLMSWVDEENILDVYRLAELFDLSRLTEQLDTYILKNFVAFSRTDKYRQLPLEKVYSLLSSNRLEVSCETEVYEGALLYHYSLEQVQADQISLHEPPKLLETVRFPLMEAEVLQRLHDKLDPSPLRDTVASALMYHRNESLQPSLQSPQTELRSDFQCVVGFGGIHSTPSTVLSDQAKYLNPLLGEWKHFTASLAPRMSNQGIAVLNNFVYLIGGDNNVQGFRAESRCWRYDPRHNRWFQIQSLQQEHADLSVCVVGRYIYAVAGRDYHNDLNAVERYDPATNSWAYVAPLKREVYAHAGATLEGKMYITCGRRGEDYLKETHCYDPGSNTWHTLADGPVRRAWHGMATLLNKLYVIGGSNNDAGYRRDVHQVACYSCTSGQWSSVCPLPAGHGEPGIAVLDNRIYVLGGRSHNRGSRTGYVHIYDVEKDCWEEGPQLDNSISGLAACVLTLPRSLLLEPPRGTPDRSQADPDFASEVMSVSDWEEFDNSSED
With B3, in the assay with PD-1-cHA (human) [2], the binding entry is reported as “binds”.
